Data taken from patent US20170128592A1, “TARGETED POLYMERIC NANO-COMPLEXES AS DRUG DELIVERY SYSTEM” (Indian Institute of Technology, Bombay, priority 2015, published 2017).
Some results were stated once for a whole list of compounds, not compound by compound. At least one structure is not confirmed: it was looked up by name or label, or the drawing left a doubt.

Tested on: Hep G2 cells
Test: SRB cytotoxicity assay
Type: cell-based, human
Conditions: Hep G2, 48 hr

COc1ccc(/C=C\c2cc(OC)c(OC)c(OC)c2)cc1O [CA4, combretastatin A4]
IC50: > 5 µM
